Results are given in words; binding and its absence hold for the method and conditions named. Binding seen in cells or lysates may run through a third protein. Some results given as binding are weak or reduced against the parent protein; the word gives no strength. For part of these data: Where a sequence is shown, tags or fusion partners need not be part of it.
How the values were obtained:
Flag-GLI1 [1] = target: Flag-GLI1 (UniProt P08151); assay: co-IP; two sequential immunoprecipitations from HEK293Ts transfected with combinations of epitope tagged SALL4, HDAC1 and GLI1: anti-Flag agarose beads, two elutions with Flag-peptide, re-immunoprecipitation with HA-agarose beads, immunoblot
Flag-REN WT = target: T1, Flag-REN WT (UniProt Q693B1); assay: co-IP; transiently transfected cells (HEK293Ts); RIPA lysate, at least 1 mg extract with primary antibody or control IgG overnight at 4 °C, protein G or A agarose 1 h at 4 °C, five washes, immunoblot
T1 sequence: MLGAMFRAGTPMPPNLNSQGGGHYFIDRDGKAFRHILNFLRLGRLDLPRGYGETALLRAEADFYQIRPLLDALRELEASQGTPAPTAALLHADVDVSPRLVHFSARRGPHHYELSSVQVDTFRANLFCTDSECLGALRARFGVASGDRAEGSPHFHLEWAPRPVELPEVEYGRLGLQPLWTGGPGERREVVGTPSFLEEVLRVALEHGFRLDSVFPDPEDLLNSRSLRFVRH

Sequences of proteins named here, by UniProt entry; tags and fusion partners are left off. A change or cut given only in a name is not applied to a line headed by its entry. A line that says so, or that is headed by a name, gives the form on record, which may keep a tag or linker.
UniProt P08151: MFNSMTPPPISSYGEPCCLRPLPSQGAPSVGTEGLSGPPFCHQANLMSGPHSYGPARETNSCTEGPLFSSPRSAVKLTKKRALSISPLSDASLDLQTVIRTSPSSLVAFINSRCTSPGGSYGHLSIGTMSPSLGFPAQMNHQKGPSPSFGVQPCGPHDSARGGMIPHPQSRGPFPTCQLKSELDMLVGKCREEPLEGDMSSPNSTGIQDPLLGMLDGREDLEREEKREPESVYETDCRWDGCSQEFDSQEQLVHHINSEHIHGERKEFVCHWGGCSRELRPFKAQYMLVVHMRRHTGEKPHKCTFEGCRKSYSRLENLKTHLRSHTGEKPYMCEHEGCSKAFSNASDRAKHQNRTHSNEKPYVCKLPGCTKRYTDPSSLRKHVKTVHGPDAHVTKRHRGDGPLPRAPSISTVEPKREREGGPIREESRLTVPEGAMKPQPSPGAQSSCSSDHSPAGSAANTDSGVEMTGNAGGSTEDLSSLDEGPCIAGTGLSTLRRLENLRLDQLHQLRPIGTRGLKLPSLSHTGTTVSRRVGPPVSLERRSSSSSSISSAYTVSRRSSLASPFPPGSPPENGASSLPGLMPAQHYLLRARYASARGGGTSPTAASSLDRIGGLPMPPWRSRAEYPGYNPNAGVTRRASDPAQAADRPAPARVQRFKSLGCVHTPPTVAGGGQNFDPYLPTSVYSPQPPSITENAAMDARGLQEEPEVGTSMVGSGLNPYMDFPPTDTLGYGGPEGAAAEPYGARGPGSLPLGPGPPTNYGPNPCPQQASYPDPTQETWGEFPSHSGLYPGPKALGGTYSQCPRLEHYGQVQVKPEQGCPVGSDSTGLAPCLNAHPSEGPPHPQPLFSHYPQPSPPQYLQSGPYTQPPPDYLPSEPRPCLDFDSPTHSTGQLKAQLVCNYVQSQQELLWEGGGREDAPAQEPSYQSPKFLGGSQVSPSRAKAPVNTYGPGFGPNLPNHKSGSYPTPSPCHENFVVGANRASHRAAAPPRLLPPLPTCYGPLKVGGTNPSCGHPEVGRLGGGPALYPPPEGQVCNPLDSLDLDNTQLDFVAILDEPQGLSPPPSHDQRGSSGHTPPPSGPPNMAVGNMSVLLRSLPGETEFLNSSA
UniProt Q9UJQ4: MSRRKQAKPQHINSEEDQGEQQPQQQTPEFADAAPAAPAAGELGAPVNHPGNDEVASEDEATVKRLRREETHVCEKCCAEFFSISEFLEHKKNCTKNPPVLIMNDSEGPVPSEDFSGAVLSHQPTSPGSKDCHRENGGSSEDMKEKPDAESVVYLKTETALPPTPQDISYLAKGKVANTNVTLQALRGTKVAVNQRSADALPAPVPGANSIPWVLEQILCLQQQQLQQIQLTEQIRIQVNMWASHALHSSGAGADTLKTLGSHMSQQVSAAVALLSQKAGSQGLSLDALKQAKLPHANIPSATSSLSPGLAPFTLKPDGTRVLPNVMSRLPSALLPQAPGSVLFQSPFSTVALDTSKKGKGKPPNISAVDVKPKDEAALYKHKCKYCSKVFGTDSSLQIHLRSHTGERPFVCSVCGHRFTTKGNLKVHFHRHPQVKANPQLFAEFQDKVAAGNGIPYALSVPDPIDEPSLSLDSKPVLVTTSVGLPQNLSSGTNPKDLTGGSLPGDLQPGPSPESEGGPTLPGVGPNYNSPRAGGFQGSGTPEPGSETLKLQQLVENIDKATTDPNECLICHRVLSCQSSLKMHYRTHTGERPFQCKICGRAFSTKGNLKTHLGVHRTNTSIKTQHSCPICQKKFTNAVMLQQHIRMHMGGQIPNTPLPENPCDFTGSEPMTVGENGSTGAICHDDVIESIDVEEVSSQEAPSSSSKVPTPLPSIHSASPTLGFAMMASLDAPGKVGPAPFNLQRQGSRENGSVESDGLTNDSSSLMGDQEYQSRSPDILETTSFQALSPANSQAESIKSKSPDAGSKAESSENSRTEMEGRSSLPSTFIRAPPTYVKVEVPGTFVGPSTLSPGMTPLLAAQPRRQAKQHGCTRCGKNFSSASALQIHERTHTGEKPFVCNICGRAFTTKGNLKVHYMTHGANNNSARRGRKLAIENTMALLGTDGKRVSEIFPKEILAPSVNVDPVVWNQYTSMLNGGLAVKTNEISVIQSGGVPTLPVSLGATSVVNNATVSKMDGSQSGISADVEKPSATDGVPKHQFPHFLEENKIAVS
ΔZFC1-SALL4 (Q9UJQ4, form named): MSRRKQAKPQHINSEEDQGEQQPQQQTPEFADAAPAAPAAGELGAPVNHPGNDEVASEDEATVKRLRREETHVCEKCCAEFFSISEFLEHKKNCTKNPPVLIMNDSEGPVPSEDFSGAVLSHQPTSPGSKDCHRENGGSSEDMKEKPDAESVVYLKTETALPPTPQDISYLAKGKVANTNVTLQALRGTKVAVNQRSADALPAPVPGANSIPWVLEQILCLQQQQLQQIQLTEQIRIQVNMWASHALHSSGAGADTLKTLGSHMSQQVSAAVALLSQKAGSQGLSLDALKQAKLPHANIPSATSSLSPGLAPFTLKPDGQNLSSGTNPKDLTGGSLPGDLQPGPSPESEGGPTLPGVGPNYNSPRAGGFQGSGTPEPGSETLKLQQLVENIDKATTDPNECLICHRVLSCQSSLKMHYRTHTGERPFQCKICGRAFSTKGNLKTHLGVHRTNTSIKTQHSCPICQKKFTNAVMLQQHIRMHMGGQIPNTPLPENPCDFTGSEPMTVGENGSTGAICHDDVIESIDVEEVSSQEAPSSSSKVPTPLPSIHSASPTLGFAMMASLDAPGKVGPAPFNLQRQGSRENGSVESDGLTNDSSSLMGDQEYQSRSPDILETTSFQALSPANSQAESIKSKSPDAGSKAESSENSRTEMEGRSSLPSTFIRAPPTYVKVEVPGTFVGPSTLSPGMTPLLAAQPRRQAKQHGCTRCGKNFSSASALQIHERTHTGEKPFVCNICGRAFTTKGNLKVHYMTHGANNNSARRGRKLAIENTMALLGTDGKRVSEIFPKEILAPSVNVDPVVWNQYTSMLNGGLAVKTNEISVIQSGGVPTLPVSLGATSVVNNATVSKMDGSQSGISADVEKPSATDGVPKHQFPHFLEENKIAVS
ΔZFC2-SALL4 (Q9UJQ4, form named): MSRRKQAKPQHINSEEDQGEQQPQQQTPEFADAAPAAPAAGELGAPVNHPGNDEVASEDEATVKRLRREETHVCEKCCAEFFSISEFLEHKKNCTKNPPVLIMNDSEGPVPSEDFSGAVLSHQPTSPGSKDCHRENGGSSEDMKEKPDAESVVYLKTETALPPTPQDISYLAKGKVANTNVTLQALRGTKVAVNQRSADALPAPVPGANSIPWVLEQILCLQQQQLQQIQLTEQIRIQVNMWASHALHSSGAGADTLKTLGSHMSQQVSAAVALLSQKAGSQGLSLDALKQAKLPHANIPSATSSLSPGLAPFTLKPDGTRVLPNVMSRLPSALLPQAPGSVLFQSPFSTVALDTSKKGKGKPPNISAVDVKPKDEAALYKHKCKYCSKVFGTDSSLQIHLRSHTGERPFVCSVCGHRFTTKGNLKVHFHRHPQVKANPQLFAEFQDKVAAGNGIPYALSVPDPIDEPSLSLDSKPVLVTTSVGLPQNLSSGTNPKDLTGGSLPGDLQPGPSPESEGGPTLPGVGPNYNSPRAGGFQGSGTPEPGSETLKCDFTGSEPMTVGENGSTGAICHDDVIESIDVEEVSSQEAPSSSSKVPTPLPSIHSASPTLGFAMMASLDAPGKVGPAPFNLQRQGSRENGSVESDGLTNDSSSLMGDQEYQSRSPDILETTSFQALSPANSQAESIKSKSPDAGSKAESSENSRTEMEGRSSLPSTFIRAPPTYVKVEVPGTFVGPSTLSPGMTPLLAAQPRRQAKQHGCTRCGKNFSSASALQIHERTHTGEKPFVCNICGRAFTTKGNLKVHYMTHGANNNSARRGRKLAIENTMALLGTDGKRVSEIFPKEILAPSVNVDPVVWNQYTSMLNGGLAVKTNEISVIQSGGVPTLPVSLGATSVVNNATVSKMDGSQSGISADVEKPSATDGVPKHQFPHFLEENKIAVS
ΔZFC4-SALL4 (Q9UJQ4, form named): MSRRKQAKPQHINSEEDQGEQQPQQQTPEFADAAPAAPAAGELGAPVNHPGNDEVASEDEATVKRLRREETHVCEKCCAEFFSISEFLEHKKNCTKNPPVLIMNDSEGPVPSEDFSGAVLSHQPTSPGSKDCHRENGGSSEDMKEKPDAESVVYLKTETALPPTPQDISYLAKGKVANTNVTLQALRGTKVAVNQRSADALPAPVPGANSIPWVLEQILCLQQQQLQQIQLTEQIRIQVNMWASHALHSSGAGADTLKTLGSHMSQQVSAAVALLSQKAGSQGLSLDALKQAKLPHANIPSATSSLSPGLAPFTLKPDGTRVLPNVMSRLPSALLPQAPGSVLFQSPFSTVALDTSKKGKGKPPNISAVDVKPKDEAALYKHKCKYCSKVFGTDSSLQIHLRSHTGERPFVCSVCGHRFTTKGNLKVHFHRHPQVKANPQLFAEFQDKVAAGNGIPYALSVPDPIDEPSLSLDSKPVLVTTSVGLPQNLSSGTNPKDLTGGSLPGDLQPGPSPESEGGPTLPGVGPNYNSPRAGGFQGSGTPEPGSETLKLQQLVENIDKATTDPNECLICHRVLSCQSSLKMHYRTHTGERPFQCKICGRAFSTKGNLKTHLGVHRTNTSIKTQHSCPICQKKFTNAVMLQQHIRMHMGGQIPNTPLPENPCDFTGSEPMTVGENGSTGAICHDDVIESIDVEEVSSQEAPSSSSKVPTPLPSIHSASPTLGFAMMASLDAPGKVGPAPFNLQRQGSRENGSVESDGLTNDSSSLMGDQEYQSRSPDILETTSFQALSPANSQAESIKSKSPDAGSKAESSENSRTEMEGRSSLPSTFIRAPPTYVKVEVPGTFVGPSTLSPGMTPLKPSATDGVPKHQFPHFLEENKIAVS
UniProt Q13547: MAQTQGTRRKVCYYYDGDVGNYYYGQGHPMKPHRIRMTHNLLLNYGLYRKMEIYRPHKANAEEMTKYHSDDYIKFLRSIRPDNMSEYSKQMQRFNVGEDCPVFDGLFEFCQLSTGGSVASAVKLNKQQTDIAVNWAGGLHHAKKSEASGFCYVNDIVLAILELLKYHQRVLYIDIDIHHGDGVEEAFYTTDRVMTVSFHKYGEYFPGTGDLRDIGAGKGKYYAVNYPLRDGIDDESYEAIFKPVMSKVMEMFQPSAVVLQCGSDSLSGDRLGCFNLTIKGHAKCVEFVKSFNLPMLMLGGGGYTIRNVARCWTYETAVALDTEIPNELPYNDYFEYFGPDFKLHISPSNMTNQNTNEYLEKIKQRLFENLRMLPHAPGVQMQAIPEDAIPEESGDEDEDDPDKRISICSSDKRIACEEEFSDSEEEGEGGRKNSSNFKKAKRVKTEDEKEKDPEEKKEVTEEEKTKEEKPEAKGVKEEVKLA

Flag-GLI1 [2] = target: Flag-GLI1 (UniProt P08151); assay: as above
Flag-ΔBTB-REN = target: T2, Flag-ΔBTB-REN (UniProt Q693B1); assay: as above
T2 sequence: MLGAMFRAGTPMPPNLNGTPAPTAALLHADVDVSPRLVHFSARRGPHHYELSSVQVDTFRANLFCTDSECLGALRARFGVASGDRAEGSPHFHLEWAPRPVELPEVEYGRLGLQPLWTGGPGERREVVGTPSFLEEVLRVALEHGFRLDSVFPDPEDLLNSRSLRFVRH

HA-SALL4 [3] = target: HA-SALL4 (UniProt Q9UJQ4); assay: co-IP; two sequential immunoprecipitations from HEK293Ts transfected with combinations of epitope tagged SALL4, HDAC1 and GLI1: anti-Flag agarose beads, two elutions with Flag-peptide, re-immunoprecipitation with HA-agarose beads, immunoblot
HA-SALL4 [4] = target: HA-SALL4 (UniProt Q9UJQ4); assay: co-IP; transiently transfected cells (HEK293Ts); RIPA lysate, at least 1 mg extract with primary antibody or control IgG overnight at 4 °C, protein G or A agarose 1 h at 4 °C, five washes, immunoblot

Row | binding (Flag-REN WT) | Substance | also measured
1 | binds | HA-SALL4 (from UniProt Q9UJQ4 1-1053) | binding (Flag-GLI1 [1]): binds; binding (Flag-GLI1 [2]): binds; binding (Flag-ΔBTB-REN): binds
2 | binds | SALL4 WT (VectorBuilder, N-terminal tagged 3xHA-6xHis) (from UniProt Q9UJQ4 1-1053) | 
3 | binds | endogenous SALL4 (from UniProt Q9UJQ4 1-1053) | 
4 |  | exogenous HDAC1 (Flag-/HA-HDAC1) (from UniProt Q13547 1-482) (enzyme) | binding (HA-SALL4 [3]): binds; binding (HA-SALL4 [4]): binds
5 | binds | ΔNuRD-SALL4 (from UniProt Q9UJQ4 13-1053) (domain or fragment) | 
6 | binds | ΔZFC1-SALL4 (from UniProt Q9UJQ4 1-1053) | 
7 | binds | ΔZFC2-SALL4 (from UniProt Q9UJQ4 1-1053) | 
8 | binds | ΔZFC4-SALL4 (from UniProt Q9UJQ4 1-1053) | 
